Reference: the supplement of paper PMC4604168 (melanoma cell lines)
Some of the results follow. Repeats are few or missing, and single values can be far off.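 Imaging used 1,536-well plates; nuclei positive for cleaved PARP by antibody were divided by total DNA-stained nuclei to yield the apoptosis fraction. Doses for screening kept most cells viable, and cell lines differ markedly in resting and induced cleaved-PARP levels.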

What follows are molecules tested on SkMel2 (assay: cleaved PARP positive nuclei fraction relative to DMSO control; melanoma cells; higher = more apoptosis). Settings: library dose: low library concentration; 72 h.

Structure (SMILES) | cleaved PARP positive nuclei fraction
Cc1cn(-c2cc(NC(=O)c3ccc(C)c(Nc4nccc(-c5cccnc5)n4)c3)cc(C(F)(F)F)c2)cn1 [nilotinib] + NC(=O)c1ccc(N(C(N)=O)c2c(F)cccc2F)nc1-c1ccc(F)cc1F [VX702] (first compound 0.2 µM, partner dose 0.4 µM) | 131%
CC[C@]1(O)C[C@H]2CN(CCc3c([nH]c4ccccc34)[C@@](C(=O)OC)(c3cc4c(cc3OC)N(C=O)[C@H]3[C@@](O)(C(=O)OC)[C@H](OC(C)=O)[C@]5(CC)C=CCN6CC[C@]43[C@@H]65)C2)C1 [vincristine] + C[C@@H](N)c1ccc(C(=O)Nc2ccnc3[nH]ccc23)cc1 [RKI983] (first compound 0.0001 µM, partner dose 0.4 µM) | 190%
Cc1cn(-c2cc(NC(=O)c3ccc(C)c(Nc4nccc(-c5cccnc5)n4)c3)cc(C(F)(F)F)c2)cn1 [nilotinib] + CC(C)C[C@H](NC(=O)[C@H](Cc1ccccc1)NC(=O)c1cnccn1)B(O)O [Bortezomib] (first compound 0.2 µM, partner dose 0.001 µM) | 56.7%
O=C(Nc1cc(C(F)(F)F)cc(C(F)(F)F)c1)c1cc(Cl)ccc1O + CC(=O)c1c(C)c2cnc(Nc3ccc(N4CCNCC4)cn3)nc2n(C2CCCC2)c1=O [palbociclib] (first compound 0.016 µM, partner dose 0.04 µM) | 52.7%
O=C(Nc1cc(C(F)(F)F)cc(C(F)(F)F)c1)c1cc(Cl)ccc1O + OCc1c[nH]c2ccccc12 [Indole-3-carbinol] (first compound 0.016 µM, partner dose 0.8 µM) | 121%
COc1cc([C@@H]2c3cc4c(cc3[C@@H](O[C@@H]3O[C@@H]5CO[C@@H](C)O[C@H]5[C@H](O)[C@H]3O)[C@H]3COC(=O)[C@H]23)OCO4)cc(OC)c1O [etoposide] + CS(=O)(=O)CCNCc1ccc(-c2ccc3ncnc(Nc4ccc(OCc5cccc(F)c5)c(Cl)c4)c3c2)o1 [lapatinib] (first compound 0.02 µM, partner dose 0.8 µM) | 129%
CCCCCCCCCCCCCCCCCCOP(=O)([O-])OC1CC[N+](C)(C)CC1 [Perifosine] + NC1(c2ccc(-c3nc4ccn5c(=O)[nH]nc5c4cc3-c3ccccc3)cc2)CCC1 [MK2206] (first compound 0.4 µM, partner dose 0.4 µM) | 56.8%
N#CC[C@H](C1CCCC1)n1cc(-c2ncnc3[nH]ccc23)cn1 [ruxolitinib] + COc1ccc(Cl)c(Nc2nc3ccccc3nc2NS(=O)(=O)c2cccc(NC(=O)C(C)(C)N)c2)c1 [XL147] (first compound 1 µM, partner dose 0.8 µM) | 123%
O=C(Nc1cc(C(F)(F)F)cc(C(F)(F)F)c1)c1cc(Cl)ccc1O + COc1ccc(C2=N[C@@H](c3ccc(Cl)cc3)[C@@H](c3ccc(Cl)cc3)N2C(=O)N2CCNC(=O)C2)c(OC(C)C)c1 [Nutlin-3] (first compound 0.016 µM, partner dose 0.1 µM) | 101%
Cc1cc(Nc2cc(N3CCN(C)CC3)nc(Sc3ccc(NC(=O)C4CC4)cc3)n2)n[nH]1 [Tozasertib] + CC[C@]1(O)C[C@H]2CN(CCc3c([nH]c4ccccc34)[C@@](C(=O)OC)(c3cc4c(cc3OC)N(C=O)[C@H]3[C@@](O)(C(=O)OC)[C@H](OC(C)=O)[C@]5(CC)C=CCN6CC[C@]43[C@@H]65)C2)C1 [vincristine] (first compound 0.006 µM, partner dose 0.0001 µM) | 174%
CC[C@]1(O)C[C@H]2CN(CCc3c([nH]c4ccccc34)[C@@](C(=O)OC)(c3cc4c(cc3OC)N(C=O)[C@H]3[C@@](O)(C(=O)OC)[C@H](OC(C)=O)[C@]5(CC)C=CCN6CC[C@]43[C@@H]65)C2)C1 [vincristine] + COc1ccc(Cl)c(Nc2nc3ccccc3nc2NS(=O)(=O)c2cccc(NC(=O)C(C)(C)N)c2)c1 [XL147] (first compound 0.0001 µM, partner dose 0.8 µM) | 140%
Cc1cn(-c2cc(NC(=O)c3ccc(C)c(Nc4nccc(-c5cccnc5)n4)c3)cc(C(F)(F)F)c2)cn1 [nilotinib] + COc1ccc(Cl)c(Nc2nc3ccccc3nc2NS(=O)(=O)c2cccc(NC(=O)C(C)(C)N)c2)c1 [XL147] (first compound 0.2 µM, partner dose 0.8 µM) | 60.6%
Cc1cc(Nc2cc(N3CCN(C)CC3)nc(Sc3ccc(NC(=O)C4CC4)cc3)n2)n[nH]1 [Tozasertib] + Nc1nc(F)nc2c1ncn2[C@@H]1O[C@H](CO)[C@@H](O)[C@@H]1O [fludarabine] (first compound 0.006 µM, partner dose 0.2 µM) | 1470%
O=C(/C=C/c1cccnc1)NCCCCC1CCN(C(=O)c2ccccc2)CC1 + CCCS(=O)(=O)Nc1ccc(F)c(C(=O)c2c[nH]c3ncc(Cl)cc23)c1F [PLX4720] (first compound 0.01 µM, partner dose 0.08 µM) | 872%
O=C(/C=C/c1cccnc1)NCCCCC1CCN(C(=O)c2ccccc2)CC1 + CC(=O)c1c(C)c2cnc(Nc3ccc(N4CCNCC4)cn3)nc2n(C2CCCC2)c1=O [palbociclib] (first compound 0.01 µM, partner dose 0.04 µM) | 594%
CCCCCCCCCCCCCCCCCCOP(=O)([O-])OC1CC[N+](C)(C)CC1 [Perifosine] + CCCCCCCCc1ccc(CCC(N)(CO)CO)cc1 [fingolimod] (first compound 0.4 µM, partner dose 2 µM) | 25.4%
CC[C@]1(O)C[C@H]2CN(CCc3c([nH]c4ccccc34)[C@@](C(=O)OC)(c3cc4c(cc3OC)N(C=O)[C@H]3[C@@](O)(C(=O)OC)[C@H](OC(C)=O)[C@]5(CC)C=CCN6CC[C@]43[C@@H]65)C2)C1 [vincristine] + Nc1ncn([C@H]2C[C@H](O)[C@@H](CO)O2)c(=O)n1 [decitabine] (first compound 0.0001 µM, partner dose 0.1 µM) | 72.2%
O=c1[nH]nc(Sc2ncc([N+](=O)[O-])s2)n1-c1ccc2c(c1)OCCO2 + CC1(C)CCC(c2ccc(Cl)cc2)=C(CN2CCN(c3ccc(C(=O)NS(=O)(=O)c4ccc(N[C@H](CCN5CCOCC5)CSc5ccccc5)c(S(=O)(=O)C(F)(F)F)c4)cc3)CC2)C1 [ABT263] (first compound 0.2 µM, partner dose 0.4 µM) | 149%
O=c1[nH]nc(Sc2ncc([N+](=O)[O-])s2)n1-c1ccc2c(c1)OCCO2 + C=C(c1ccc(C(=O)O)cc1)c1cc2c(cc1C)C(C)(C)CCC2(C)C [Bexarotene] (first compound 0.2 µM, partner dose 2 µM) | 57%
CC[C@]1(O)C[C@H]2CN(CCc3c([nH]c4ccccc34)[C@@](C(=O)OC)(c3cc4c(cc3OC)N(C=O)[C@H]3[C@@](O)(C(=O)OC)[C@H](OC(C)=O)[C@]5(CC)C=CCN6CC[C@]43[C@@H]65)C2)C1 [vincristine] + COc1ccc(C2=N[C@@H](c3ccc(Cl)cc3)[C@@H](c3ccc(Cl)cc3)N2C(=O)N2CCNC(=O)C2)c(OC(C)C)c1 [Nutlin-3] (first compound 0.0001 µM, partner dose 0.1 µM) | 146%
COc1cc([C@@H]2c3cc4c(cc3[C@@H](O[C@@H]3O[C@@H]5CO[C@@H](C)O[C@H]5[C@H](O)[C@H]3O)[C@H]3COC(=O)[C@H]23)OCO4)cc(OC)c1O [etoposide] + C[C@@H](Oc1cc(-c2cnn(C3CCNCC3)c2)cnc1N)c1c(Cl)ccc(F)c1Cl [Crizotinib] (first compound 0.02 µM, partner dose 0.2 µM) | 135%
CC[C@]1(O)C[C@H]2CN(CCc3c([nH]c4ccccc34)[C@@](C(=O)OC)(c3cc4c(cc3OC)N(C=O)[C@H]3[C@@](O)(C(=O)OC)[C@H](OC(C)=O)[C@]5(CC)C=CCN6CC[C@]43[C@@H]65)C2)C1 [vincristine] + OCc1c[nH]c2ccccc12 [Indole-3-carbinol] (first compound 0.0001 µM, partner dose 0.8 µM) | 103%
O=c1[nH]nc(Sc2ncc([N+](=O)[O-])s2)n1-c1ccc2c(c1)OCCO2 + Cn1cnc2c(F)c(Nc3ccc(Br)cc3Cl)c(C(=O)NOCCO)cc21 [selumetinib] (first compound 0.2 µM, partner dose 0.015 µM) | 82%
CC[C@]1(O)C[C@H]2CN(CCc3c([nH]c4ccccc34)[C@@](C(=O)OC)(c3cc4c(cc3OC)N(C=O)[C@H]3[C@@](O)(C(=O)OC)[C@H](OC(C)=O)[C@]5(CC)C=CCN6CC[C@]43[C@@H]65)C2)C1 [vincristine] + CS(=O)(=O)c1ccc(C(=O)Nc2ccc(Cl)c(-c3ccccn3)c2)c(Cl)c1 [vismodegib] (first compound 0.0001 µM, partner dose 1 µM) | 124%
O=c1[nH]nc(Sc2ncc([N+](=O)[O-])s2)n1-c1ccc2c(c1)OCCO2 + Nc1ccn([C@@H]2O[C@H](CO)[C@@H](O)C2(F)F)c(=O)n1 [gemcitabine] (first compound 0.2 µM, partner dose 0.0004 µM) | 71.2%
CCCCCCCCCCCCCCCCCCOP(=O)([O-])OC1CC[N+](C)(C)CC1 [Perifosine] + Cc1cc(Nc2cc(N3CCN(C)CC3)nc(/C=C/c3ccccc3)n2)n[nH]1 [ENMD2076] (first compound 0.4 µM, partner dose 0.04 µM) | 153%

Part of the list above, as a markdown table.

| Structure (SMILES) | cleaved PARP positive nuclei fraction |
| --- | --- |
| Cc1cn(-c2cc(NC(=O)c3ccc(C)c(Nc4nccc(-c5cccnc5)n4)c3)cc(C(F)(F)F)c2)cn1 [nilotinib] + CC(C)C[C@H](NC(=O)[C@H](Cc1ccccc1)NC(=O)c1cnccn1)B(O)O [Bortezomib] (first compound 0.2 µM, partner dose 0.001 µM) | 56.7% |
| CCCCCCCCCCCCCCCCCCOP(=O)([O-])OC1CC[N+](C)(C)CC1 [Perifosine] + NC1(c2ccc(-c3nc4ccn5c(=O)[nH]nc5c4cc3-c3ccccc3)cc2)CCC1 [MK2206] (first compound 0.4 µM, partner dose 0.4 µM) | 56.8% |
| CC[C@]1(O)C[C@H]2CN(CCc3c([nH]c4ccccc34)[C@@](C(=O)OC)(c3cc4c(cc3OC)N(C=O)[C@H]3[C@@](O)(C(=O)OC)[C@H](OC(C)=O)[C@]5(CC)C=CCN6CC[C@]43[C@@H]65)C2)C1 [vincristine] + COc1ccc(Cl)c(Nc2nc3ccccc3nc2NS(=O)(=O)c2cccc(NC(=O)C(C)(C)N)c2)c1 [XL147] (first compound 0.0001 µM, partner dose 0.8 µM) | 140% |
| Cc1cc(Nc2cc(N3CCN(C)CC3)nc(Sc3ccc(NC(=O)C4CC4)cc3)n2)n[nH]1 [Tozasertib] + Nc1nc(F)nc2c1ncn2[C@@H]1O[C@H](CO)[C@@H](O)[C@@H]1O [fludarabine] (first compound 0.006 µM, partner dose 0.2 µM) | 1470% |
| O=c1[nH]nc(Sc2ncc([N+](=O)[O-])s2)n1-c1ccc2c(c1)OCCO2 + Cn1cnc2c(F)c(Nc3ccc(Br)cc3Cl)c(C(=O)NOCCO)cc21 [selumetinib] (first compound 0.2 µM, partner dose 0.015 µM) | 82% |
| CC[C@]1(O)C[C@H]2CN(CCc3c([nH]c4ccccc34)[C@@](C(=O)OC)(c3cc4c(cc3OC)N(C=O)[C@H]3[C@@](O)(C(=O)OC)[C@H](OC(C)=O)[C@]5(CC)C=CCN6CC[C@]43[C@@H]65)C2)C1 [vincristine] + CS(=O)(=O)c1ccc(C(=O)Nc2ccc(Cl)c(-c3ccccn3)c2)c(Cl)c1 [vismodegib] (first compound 0.0001 µM, partner dose 1 µM) | 124% |
